# These are yes or no findings as the source states them, for the method shown. Some entries that bind do so weakly or less than the wild type.
# By UniProt entry, the sequences of proteins in these tests, tags left out. Residues count along the entry.
# UniProt P61809, residues 99-307: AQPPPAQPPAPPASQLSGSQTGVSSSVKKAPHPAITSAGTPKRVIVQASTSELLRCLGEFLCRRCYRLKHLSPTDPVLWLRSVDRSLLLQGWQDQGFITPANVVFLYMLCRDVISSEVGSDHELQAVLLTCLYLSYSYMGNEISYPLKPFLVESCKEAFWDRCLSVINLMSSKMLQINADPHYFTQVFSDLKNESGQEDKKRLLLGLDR
# Target: p25, from mouse brain tissue (mouse) (UniProt P61809)
# Test: interaction assay of FIG. 4 (method not described)
binder,measurement,value
ARAFGIPVRCYS [CDK5 inhibitory (CDK5i) peptide],binding,binds

# Reference: US20190085029A1
